In doi:10.1101/2025.01.31.636011 one finds binding data, which are given here for two molecules.

Results are given in words; binding and its absence hold for the method and conditions named. Some entries that bind do so weakly or less than the wild type. Tags and fused reporters may be left off the sequences shown.

The assay concerns the target T1, PgBamG (PGN_1735) with a C-terminal 7His-tag (Porphyromonas gingivalis) (UniProt B2RLK9).
T1 sequence (chain, tri-acylated lipid anchor; O-glycosylation, 7 sites): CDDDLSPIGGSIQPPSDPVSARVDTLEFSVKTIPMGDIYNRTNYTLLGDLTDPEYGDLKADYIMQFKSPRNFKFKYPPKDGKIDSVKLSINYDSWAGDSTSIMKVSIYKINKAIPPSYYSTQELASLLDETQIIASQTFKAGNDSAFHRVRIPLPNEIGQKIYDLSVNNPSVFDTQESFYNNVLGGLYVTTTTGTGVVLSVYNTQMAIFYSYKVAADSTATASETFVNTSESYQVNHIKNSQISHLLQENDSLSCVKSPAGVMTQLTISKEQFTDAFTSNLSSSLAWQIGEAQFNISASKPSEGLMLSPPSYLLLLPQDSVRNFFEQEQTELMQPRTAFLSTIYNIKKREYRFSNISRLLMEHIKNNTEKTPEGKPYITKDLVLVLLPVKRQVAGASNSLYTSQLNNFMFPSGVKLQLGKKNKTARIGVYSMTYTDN
In words: cryo-EM structure.

Turning to “PgBamH (PGN_0296) (from UniProt B2RHH0 26-387)”, the binding result was “binds”.

B1: PgBamJ (PGN_1188) (protein, UniProt B2RK12 24-203)
chain: CKKSDIKSLKEMKKDERKAIESFINRMGFTIKEGHEGQSEFDPDIMYHFDNDLYMQVLDKGKEPPVLNKTKINVRMEGFMFNRERDSIYVFNSLTSGGFQESVFRYIYKYNDGDIHFELIKCTTGSNLDMFVCEGVAFPMTMLGNKARVRLIVPFRIGPESLYSRGLTGYYKEVEYVFRD
For the molecule B1, the binding result is reported as “binds”.
